Results are given in words; binding and its absence hold for the method and conditions named. Some entries that bind do so weakly or less than the wild type. Where a sequence is shown, tags or fusion partners need not be part of it.
Molecular target: T1, HA-tagged CRHR2a (corticotropin-releasing hormone receptor 2, alpha isoform) (human) (UniProt Q13324)
T1 sequence: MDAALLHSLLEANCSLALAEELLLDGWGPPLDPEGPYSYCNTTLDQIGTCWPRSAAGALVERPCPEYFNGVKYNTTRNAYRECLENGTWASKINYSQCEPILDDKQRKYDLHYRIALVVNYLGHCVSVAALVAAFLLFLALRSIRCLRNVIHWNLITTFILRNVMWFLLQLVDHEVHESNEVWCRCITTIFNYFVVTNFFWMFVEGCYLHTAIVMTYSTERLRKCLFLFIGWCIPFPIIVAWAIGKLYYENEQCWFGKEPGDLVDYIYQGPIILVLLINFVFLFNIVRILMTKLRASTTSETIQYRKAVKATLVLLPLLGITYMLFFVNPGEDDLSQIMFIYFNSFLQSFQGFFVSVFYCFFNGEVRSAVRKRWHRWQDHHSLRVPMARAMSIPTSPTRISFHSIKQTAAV
Test: live-cell fluorescence microscopy of a labelled ligand on cells; FAM-UCN2 added to HEK293 cells transiently transfected with HA-tagged CRHR2a, imaged over 24 h; controls were cells not expressing CRHR2 and CRHR2-expressing cells treated with saline; only the binder purified

B1: Fluorescently labeled UCN2 (FAM-UCN2) (peptide, UniProt Q96RP3 72-112)
chain: IVLSLDVPIGLLQILLEQARARAAREQATTNARILARVGHC
modifications: FAM fluorescent label, position not stated
Question: With B1 as the binder, how does the binding read?
Answer: Its binding is “binds”.
